Results are given in words; binding and its absence hold for the method and conditions named. Binding seen in cells or lysates may run through a third protein. A result given as binding can be weak or reduced; the word gives no strength.
These substances were tested against T1, ZO-2 (Zonula occludens-2) (dog (endogenous in MDCK)) (UniProt Q95168) (assay: co-IP; ZO-2 immunoprecipitated with anti-ZO-2 (1 ul per 300 ug protein) from lysate of parental MDCK cells; buffer 50 mM Tris-HCl pH 7.5, 150 mM NaCl, 1% NP-40, protease inhibitors; Western blot of the precipitate; subconfluent or proliferating cells (KIF14, NuMA, p-Aurora, TPX2) or confluent cells (IFT57); pre-immune serum as control).
T1 sequence: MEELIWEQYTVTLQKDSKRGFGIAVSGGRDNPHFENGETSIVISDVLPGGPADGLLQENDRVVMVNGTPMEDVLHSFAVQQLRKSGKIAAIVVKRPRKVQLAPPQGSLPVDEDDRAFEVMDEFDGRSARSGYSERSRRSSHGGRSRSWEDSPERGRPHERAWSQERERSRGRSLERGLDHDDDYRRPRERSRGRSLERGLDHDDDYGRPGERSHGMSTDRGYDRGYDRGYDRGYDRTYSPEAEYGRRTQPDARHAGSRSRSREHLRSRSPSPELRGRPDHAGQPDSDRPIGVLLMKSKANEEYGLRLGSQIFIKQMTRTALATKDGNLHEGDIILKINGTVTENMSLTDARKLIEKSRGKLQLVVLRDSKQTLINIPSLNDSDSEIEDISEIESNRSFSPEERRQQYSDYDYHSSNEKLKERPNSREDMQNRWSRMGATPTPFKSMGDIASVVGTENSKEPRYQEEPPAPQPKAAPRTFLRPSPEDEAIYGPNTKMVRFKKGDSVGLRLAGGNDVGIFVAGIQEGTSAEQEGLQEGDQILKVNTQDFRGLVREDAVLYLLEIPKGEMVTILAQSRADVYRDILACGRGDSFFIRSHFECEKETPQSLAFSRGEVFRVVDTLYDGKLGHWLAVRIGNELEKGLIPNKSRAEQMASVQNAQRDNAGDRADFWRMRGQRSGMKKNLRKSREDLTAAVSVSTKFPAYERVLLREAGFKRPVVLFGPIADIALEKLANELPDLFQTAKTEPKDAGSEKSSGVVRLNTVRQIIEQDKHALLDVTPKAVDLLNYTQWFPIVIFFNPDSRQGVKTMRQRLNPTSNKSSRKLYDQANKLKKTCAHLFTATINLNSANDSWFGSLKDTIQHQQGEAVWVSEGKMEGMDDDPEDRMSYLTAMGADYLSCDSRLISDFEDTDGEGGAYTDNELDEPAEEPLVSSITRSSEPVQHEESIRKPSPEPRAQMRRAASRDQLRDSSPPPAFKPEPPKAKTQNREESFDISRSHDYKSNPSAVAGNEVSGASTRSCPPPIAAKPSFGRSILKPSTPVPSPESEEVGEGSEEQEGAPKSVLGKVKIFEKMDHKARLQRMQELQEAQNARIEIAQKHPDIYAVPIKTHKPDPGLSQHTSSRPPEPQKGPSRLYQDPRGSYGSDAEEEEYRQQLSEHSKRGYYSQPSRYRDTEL

Row | Substance | binding
1 | NuMA (Nuclear Mitotic Apparatus) (dog (endogenous in MDCK)) | binds
2 | TPX2 (dog (endogenous in MDCK)) | no binding
3 | kinesin KIF14 (dog (endogenous in MDCK)) | binds
